Source: publication PMC8824340
These are yes or no findings as the source states them, for the method shown. Some entries that bind do so weakly or less than the wild type.

Chains of the proteins cited; added tags and fusions are not shown. Residues count along the entry.
UniProt P23201, residues 1-200: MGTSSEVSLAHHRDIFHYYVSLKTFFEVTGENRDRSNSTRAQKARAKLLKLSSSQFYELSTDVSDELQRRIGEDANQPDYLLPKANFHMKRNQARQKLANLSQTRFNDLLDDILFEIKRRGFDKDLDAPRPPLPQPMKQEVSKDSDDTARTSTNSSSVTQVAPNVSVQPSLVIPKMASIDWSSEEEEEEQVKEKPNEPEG

Key:
[1] = target: T1, Msb3 N-terminal region (1-220), Spa2 interaction domain (S. cerevisiae) (UniProt P48566); assay: two-hybrid; N-terminal regions of Spa2 (1-200), Msb3 (1-220) and Msb4 (1-144); beta-galactosidase activity in Miller units, 3 experiments
T1 sequence: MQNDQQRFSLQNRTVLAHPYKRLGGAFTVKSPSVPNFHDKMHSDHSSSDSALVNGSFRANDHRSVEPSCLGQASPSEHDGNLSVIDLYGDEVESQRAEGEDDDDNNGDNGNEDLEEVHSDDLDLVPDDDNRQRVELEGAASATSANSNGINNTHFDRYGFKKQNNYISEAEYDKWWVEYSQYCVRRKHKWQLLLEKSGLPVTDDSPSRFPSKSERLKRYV

[2] = target: T2, Msb4 N-terminal region (1-144), Spa2 interaction domain (S. cerevisiae) (UniProt Q12317); assay: as above
T2 sequence: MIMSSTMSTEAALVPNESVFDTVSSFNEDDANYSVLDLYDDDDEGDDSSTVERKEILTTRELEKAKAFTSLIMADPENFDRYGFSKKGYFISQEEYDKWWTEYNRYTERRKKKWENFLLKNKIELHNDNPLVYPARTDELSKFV

binding [1]: binds
binding [2]: binds
Substance: Spa2 N-terminal region (1-200), wild-type SHD (from UniProt P23201 1-200) (domain or fragment)
